From patent US4454123A, “O-xylopyranoside series compounds and methods of use” (Seikagaku Kogyo Co. Ltd., priority 1980, dated 1984)
The name of at least one read-out is uncertain.

Test system: synthesis of chondroitin sulfate in epiphysial cartilages
Experiment: Effect of xyloside compounds on synthesis of [35S]glycosaminoglycan (chondroitin sulfate) in epiphysial cartilage culture (Test Examples 1-3)
Type: cell-based, chick embryos
Conditions: at 1 mM
Experimental: Epiphysial cartilages were taken from chick embryos aged 12 days in the Tyrode's medium under ice-cooling, and excess tissues were removed therefrom. To 150 mg. of cartilages corresponding to five embryos, 5 ml. of BGJb [a completely synthetic culture medium prepared according to a recipe of GIBCO (Grand Island Biological Company)] was added, followed by pre-incubation at a temperature of 37° C. After replacing the culture medium, further 1 ml. of BGJb and 5 μCi Na2^35 SO4 were added, and the culture system was kept at 37° C. for 3 hours. The culture medium was then replaced by 1 ml. of a fresh chase medium containing no radio active isotope. After keeping the culture system at 37° C. for 1 hour, the culture medium was separated from the tissues. To study the effects of the xyloside compound on the synthesis of glycosaminoglycan, the xyloside compound was added in the predetermined concentration to the pre-incubation and incubation media.
After the incubation, the labeled medium containing Na2^35 SO4 was combined with the chase medium. Pronase-P (trade name) (available from Kaken Kagaku Co., Ltd.) was added thereto in a 0.5 M tris-HCl buffer solution (pH 8.0), and the resulting mixture was digested at 50° C. for 16 hours. […]

Structure (SMILES): O=[N+]([O-])c1ccc(O[C@@H]2OC[C@@H](O)[C@H](O)[C@H]2O)cc1 [O-paranitrophenyl-β-D-xylopyranoside]
- [35S]glycosaminoglycan liberated to the culture medium: 95 % of the control
